Measurements: the supplement of paper PMC12823440, “Inhibitors supercharge kinase turnover through native proteolytic circuits” (Nature, 2025)
Counter-ions that a name gives are not always drawn. The list shows a part of the results. The calls rarely recur for the same compound in another form.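 In K562 cells expressing nanoluciferase-fused kinases, luminescence was recorded at 4 h intervals between 2 and 18 h, normalized as percent of control with DMSO at 100% and a positive control at 0%. A significant (2 sigma) signal drop marks a time point as decreased. The authors' rule for a hit is not shown and takes in more than the number of time points.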

Amino acid sequences for entries named in this document (tags omitted). A change or cut given only in a name is not applied to a line headed by its entry.
UniProt Q9UQM7, whole entry: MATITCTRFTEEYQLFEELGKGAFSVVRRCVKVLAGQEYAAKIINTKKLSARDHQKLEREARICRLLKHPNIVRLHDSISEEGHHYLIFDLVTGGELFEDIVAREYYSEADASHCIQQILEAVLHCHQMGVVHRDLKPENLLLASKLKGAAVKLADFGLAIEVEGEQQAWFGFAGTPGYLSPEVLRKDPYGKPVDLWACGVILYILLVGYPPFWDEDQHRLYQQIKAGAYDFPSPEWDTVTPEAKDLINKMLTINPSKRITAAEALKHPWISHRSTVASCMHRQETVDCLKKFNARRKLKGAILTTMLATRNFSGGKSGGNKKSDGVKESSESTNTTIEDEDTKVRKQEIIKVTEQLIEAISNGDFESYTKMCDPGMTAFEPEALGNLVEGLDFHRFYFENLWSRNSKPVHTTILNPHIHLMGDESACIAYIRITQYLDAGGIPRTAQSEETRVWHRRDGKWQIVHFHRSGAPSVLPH
UniProt Q13555: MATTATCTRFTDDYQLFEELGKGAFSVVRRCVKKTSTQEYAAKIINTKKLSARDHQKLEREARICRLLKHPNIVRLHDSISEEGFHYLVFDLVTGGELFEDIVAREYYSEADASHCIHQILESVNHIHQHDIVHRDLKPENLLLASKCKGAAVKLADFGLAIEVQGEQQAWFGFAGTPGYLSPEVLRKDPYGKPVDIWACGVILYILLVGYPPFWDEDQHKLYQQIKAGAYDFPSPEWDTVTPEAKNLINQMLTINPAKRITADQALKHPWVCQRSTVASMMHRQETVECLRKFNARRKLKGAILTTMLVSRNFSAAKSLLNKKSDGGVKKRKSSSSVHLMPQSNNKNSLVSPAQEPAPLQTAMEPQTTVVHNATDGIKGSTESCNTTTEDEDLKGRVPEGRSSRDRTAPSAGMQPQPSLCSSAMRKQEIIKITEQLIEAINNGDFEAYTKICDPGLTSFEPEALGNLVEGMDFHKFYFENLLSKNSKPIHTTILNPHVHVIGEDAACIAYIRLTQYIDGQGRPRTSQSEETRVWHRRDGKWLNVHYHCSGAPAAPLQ
UniProt Q15131: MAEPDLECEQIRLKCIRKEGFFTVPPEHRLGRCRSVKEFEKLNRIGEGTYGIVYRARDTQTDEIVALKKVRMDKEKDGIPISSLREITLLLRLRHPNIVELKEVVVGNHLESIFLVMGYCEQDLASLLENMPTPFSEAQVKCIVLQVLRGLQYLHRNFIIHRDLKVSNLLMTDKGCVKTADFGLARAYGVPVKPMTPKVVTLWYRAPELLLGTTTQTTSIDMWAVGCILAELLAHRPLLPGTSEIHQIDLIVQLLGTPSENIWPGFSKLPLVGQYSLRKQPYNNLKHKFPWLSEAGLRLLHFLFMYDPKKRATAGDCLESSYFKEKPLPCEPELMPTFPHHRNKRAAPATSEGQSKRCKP
UniProt Q00526: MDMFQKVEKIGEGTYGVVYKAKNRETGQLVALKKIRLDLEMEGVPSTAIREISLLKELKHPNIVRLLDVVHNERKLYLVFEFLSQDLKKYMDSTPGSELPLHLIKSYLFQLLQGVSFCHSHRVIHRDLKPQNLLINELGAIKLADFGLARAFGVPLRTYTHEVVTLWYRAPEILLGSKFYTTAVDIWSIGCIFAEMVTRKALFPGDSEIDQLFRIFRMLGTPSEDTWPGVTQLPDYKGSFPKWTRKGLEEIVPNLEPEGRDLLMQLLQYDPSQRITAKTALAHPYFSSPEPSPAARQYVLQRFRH
UniProt Q00535, whole entry, looked up: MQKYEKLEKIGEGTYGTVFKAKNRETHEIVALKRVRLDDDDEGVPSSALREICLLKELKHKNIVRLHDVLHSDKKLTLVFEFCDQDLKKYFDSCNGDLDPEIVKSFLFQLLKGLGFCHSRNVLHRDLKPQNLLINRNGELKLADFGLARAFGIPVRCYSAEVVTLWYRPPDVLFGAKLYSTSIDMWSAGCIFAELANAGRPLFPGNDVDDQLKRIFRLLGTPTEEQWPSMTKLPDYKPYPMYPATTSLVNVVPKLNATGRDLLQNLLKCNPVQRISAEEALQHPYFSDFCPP
UniProt Q00534, whole entry: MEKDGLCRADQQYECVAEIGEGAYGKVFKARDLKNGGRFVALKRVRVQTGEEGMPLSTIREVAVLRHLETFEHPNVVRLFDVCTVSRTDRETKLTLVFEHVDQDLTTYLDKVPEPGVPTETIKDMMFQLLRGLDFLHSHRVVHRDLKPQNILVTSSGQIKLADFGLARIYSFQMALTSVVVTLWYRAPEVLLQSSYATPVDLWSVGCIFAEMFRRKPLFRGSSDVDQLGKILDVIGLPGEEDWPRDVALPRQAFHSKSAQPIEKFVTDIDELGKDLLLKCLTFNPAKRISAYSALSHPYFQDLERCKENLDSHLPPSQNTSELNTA
UniProt P50613: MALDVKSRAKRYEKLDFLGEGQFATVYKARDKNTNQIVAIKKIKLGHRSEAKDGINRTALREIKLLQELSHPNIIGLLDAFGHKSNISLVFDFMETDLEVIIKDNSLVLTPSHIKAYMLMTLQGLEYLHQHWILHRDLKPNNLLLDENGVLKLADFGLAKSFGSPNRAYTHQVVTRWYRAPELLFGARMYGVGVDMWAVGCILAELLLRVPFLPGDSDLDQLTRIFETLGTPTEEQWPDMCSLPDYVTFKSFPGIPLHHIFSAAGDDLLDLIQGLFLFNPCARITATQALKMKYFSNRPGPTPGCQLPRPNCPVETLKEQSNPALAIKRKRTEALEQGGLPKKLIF
UniProt O96017, whole entry: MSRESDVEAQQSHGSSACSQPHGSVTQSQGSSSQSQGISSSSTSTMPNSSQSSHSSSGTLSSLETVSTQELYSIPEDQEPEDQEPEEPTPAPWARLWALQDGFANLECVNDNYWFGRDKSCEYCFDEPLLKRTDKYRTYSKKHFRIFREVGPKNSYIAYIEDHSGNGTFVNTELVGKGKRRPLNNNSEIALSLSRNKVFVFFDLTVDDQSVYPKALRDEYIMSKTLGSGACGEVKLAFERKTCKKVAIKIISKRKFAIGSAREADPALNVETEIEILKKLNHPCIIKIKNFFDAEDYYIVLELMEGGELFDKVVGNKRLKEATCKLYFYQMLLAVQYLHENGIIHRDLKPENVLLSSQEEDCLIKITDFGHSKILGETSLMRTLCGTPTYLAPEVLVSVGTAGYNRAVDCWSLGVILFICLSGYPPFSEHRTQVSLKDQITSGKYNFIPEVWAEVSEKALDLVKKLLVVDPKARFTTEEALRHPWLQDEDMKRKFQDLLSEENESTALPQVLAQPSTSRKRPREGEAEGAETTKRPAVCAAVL
UniProt P07333, whole entry: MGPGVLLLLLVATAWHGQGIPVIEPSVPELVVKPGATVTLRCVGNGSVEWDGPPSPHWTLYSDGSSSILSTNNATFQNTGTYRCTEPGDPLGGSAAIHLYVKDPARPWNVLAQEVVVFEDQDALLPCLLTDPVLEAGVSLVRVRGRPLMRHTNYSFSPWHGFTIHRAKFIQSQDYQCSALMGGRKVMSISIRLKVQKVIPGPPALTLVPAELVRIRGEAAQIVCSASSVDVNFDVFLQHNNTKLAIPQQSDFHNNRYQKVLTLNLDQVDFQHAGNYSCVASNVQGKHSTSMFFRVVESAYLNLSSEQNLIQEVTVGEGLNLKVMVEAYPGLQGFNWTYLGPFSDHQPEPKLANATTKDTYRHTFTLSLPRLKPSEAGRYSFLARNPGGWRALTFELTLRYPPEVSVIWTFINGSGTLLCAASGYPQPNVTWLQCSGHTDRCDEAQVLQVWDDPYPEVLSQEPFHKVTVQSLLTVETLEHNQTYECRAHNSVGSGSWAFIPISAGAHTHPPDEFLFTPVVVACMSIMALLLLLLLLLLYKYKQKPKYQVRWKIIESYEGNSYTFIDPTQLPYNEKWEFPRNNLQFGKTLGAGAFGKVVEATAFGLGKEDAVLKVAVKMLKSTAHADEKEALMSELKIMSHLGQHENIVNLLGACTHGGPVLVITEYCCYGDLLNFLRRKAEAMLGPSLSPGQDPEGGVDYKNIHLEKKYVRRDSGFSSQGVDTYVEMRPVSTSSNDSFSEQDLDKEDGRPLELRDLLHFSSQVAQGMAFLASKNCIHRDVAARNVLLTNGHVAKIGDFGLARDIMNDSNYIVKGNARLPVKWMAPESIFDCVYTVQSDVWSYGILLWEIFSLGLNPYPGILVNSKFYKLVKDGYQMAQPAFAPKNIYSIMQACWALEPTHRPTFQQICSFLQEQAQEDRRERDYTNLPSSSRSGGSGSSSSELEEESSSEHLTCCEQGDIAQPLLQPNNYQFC
UniProt P48729: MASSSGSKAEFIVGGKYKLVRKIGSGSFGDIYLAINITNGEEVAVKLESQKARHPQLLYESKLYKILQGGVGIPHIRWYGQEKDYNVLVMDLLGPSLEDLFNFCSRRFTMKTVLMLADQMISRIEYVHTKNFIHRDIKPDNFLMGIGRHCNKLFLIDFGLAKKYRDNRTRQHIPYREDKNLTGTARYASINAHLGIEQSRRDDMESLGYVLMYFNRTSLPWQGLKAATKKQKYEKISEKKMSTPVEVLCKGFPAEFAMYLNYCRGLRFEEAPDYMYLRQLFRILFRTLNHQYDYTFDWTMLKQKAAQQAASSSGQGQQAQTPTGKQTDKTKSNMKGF
UniProt P48730: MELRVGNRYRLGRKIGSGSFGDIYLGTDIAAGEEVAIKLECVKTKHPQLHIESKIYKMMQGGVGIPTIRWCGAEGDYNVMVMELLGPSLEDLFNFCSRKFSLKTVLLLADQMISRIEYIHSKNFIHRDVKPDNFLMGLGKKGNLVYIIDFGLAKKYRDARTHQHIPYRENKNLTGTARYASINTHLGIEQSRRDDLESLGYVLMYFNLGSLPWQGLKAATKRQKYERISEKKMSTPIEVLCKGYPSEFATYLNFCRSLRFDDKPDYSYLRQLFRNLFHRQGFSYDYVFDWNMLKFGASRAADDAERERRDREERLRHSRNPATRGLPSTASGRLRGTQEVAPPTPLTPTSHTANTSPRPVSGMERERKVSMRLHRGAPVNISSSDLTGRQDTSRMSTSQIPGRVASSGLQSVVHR
UniProt Q08345: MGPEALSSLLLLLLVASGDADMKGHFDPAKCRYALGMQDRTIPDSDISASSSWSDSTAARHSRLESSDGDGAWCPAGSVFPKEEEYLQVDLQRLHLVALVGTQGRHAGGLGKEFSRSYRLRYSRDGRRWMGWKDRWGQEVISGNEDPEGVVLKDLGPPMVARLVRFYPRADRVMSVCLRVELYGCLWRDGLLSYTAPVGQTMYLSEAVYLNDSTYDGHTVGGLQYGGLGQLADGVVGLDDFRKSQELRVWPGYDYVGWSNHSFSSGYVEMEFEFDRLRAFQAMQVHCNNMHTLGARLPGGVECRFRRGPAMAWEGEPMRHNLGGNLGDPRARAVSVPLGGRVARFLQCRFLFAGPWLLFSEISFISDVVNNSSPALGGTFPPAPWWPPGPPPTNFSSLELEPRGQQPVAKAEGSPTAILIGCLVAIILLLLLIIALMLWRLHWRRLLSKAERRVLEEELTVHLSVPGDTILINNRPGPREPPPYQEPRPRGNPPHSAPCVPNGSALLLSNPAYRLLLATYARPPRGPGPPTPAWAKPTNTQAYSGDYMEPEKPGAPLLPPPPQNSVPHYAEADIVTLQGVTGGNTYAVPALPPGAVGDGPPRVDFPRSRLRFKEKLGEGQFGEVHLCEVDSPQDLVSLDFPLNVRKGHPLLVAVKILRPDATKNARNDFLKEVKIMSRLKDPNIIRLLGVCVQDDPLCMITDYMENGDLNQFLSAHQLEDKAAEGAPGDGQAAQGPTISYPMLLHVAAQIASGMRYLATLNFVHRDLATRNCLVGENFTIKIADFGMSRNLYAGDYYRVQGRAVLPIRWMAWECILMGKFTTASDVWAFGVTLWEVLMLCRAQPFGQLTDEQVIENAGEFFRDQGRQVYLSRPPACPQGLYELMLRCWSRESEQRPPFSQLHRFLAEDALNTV
UniProt Q92630: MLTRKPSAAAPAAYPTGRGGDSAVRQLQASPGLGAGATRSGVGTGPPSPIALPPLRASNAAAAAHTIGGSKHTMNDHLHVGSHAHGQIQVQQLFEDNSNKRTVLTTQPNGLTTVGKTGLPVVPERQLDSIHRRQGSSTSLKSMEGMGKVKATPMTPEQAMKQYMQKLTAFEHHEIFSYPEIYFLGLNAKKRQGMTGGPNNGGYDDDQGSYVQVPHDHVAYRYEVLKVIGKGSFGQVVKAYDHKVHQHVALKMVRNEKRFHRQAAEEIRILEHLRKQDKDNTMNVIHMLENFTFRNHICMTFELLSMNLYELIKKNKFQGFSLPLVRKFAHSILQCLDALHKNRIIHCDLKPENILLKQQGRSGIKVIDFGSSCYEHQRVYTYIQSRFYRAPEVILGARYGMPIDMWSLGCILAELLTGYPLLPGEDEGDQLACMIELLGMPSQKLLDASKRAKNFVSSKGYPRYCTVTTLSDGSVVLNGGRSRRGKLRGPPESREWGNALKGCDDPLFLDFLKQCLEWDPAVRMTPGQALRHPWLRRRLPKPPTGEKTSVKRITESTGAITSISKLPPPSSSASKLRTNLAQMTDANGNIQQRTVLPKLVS

Experiments:
Assay in all cases: kinase-Nluc reporter destabilization hit call (1 = scored as downregulated) (binary); higher = compound decreases kinase abundance
Settings in all cases: K562; 2-18 h
BRAF_V600E = test system: BRAF_V600E
BTK = BTK (UniProt Q06187)
CAMK2A = CAMK2A (UniProt Q9UQM7)
CAMK2G = CAMK2G (UniProt Q13555)
CDK10 = CDK10 (UniProt Q15131)
CDK2 = CDK2 (UniProt P24941)
CDK3 = CDK3 (UniProt Q00526)
CDK4 = CDK4 (UniProt P11802)
CDK5 = CDK5 (UniProt Q00535)
CDK6 = CDK6 (UniProt Q00534)
CDK7 = CDK7 (UniProt P50613)
CDK9 = CDK9 (UniProt P50750)
CHEK2 = CHEK2 (UniProt O96017)
CSF1R = CSF1R (UniProt P07333)
CSK = CSK (UniProt P41240)
CSNK1A1 = CSNK1A1 (UniProt P48729)
CSNK1D = CSNK1D (UniProt P48730)
DDR1 = DDR1 (UniProt Q08345)
DYRK1B = DYRK1B (UniProt Q9Y463)
DYRK2 = DYRK2 (UniProt Q92630)

Measured: kinase-Nluc reporter destabilization hit call

NC(=O)c1cnc2[nH]ccc2c1N[C@@H]1[C@@H]2CC3C[C@H]1C[C@@](O)(C3)C2 [Peficitinib] (10 µM)
inactive: BRAF_V600E 0 | BTK 0 | CAMK2A 0 | CAMK2G 0 | CDK10 = 0 | CDK2 = 0 | CDK3 = 0 | CDK4 = 0 | CDK5 = 0 | CDK6 = 0 | CDK7 = 0 | CDK9 = 0 | CHEK2 = 0 | CSF1R 0 | CSK 0 | CSNK1A1 = 0 | CSNK1D 0 | DDR1 = 0 | DYRK1B 0 | DYRK2 = 0

CN1CCC(c2ccccc2CC(C)(C)Nc2nc(N3CCOCC3)nc(-n3c(C(F)F)nc4ccccc43)n2)CC1 [Zandelisib] (10 µM)
inactive: BRAF_V600E 0 | BTK 0 | CAMK2A 0 | CAMK2G 0 | CDK10 = 0 | CDK2 = 0 | CDK3 = 0 | CDK4 = 0 | CDK5 = 0 | CDK6 = 0 | CDK7 = 0 | CDK9 = 0 | CHEK2 = 0 | CSF1R 0 | CSK 0 | CSNK1A1 = 0 | CSNK1D 0 | DDR1 = 0 | DYRK1B 0 | DYRK2 = 0

C=CC(=O)N1C[C@H](COc2nc(Nc3cnn(C)c3)nc3[nH]cc(Cl)c23)[C@@H](OC)C1 (2.5 µM)
inactive: BRAF_V600E 0 | BTK 0 | CAMK2A 0 | CAMK2G 0 | CDK10 = 0 | CDK2 = 0 | CDK3 = 0 | CDK4 = 0 | CDK5 = 0 | CDK6 = 0 | CDK7 = 0 | CDK9 = 0 | CHEK2 = 0 | CSF1R 0 | CSK 0 | CSNK1A1 = 0 | CSNK1D 0 | DDR1 = 0 | DYRK1B 0 | DYRK2 = 0

C[C@@H]1CC(=O)c2c(ccc3c2C(=O)c2cccc(O)c2C3=O)C1 [Ochromycinone] (10 µM)
inactive: BRAF_V600E 0 | BTK 0 | CAMK2A 0 | CAMK2G 0 | CDK10 = 0 | CDK2 = 0 | CDK3 = 0 | CDK4 = 0 | CDK5 = 0 | CDK6 = 0 | CDK7 = 0 | CDK9 = 0 | CHEK2 = 0 | CSF1R 0 | CSK 0 | CSNK1A1 = 0 | CSNK1D 0 | DDR1 = 0 | DYRK1B 0 | DYRK2 = 0

O=C(O)c1cc(=O)c2c(OCC(O)COc3cccc4oc(C(=O)O)cc(=O)c34)cccc2o1 [Cromolyn (sodium)] (10 µM)
inactive: BRAF_V600E 0 | BTK 0 | CAMK2A 0 | CAMK2G 0 | CDK10 = 0 | CDK2 = 0 | CDK3 = 0 | CDK4 = 0 | CDK5 = 0 | CDK6 = 0 | CDK7 = 0 | CDK9 = 0 | CHEK2 = 0 | CSF1R 0 | CSK 0 | CSNK1A1 = 0 | CSNK1D 0 | DDR1 = 0 | DYRK1B 0 | DYRK2 = 0

Cc1nn(C)c2c1C(c1ccc(C(F)(F)F)cc1)C(C#N)=C(N)O2 (stereo not given) (10 µM)
inactive: BRAF_V600E 0 | BTK 0 | CAMK2A 0 | CAMK2G 0 | CDK10 = 0 | CDK2 = 0 | CDK3 = 0 | CDK4 = 0 | CDK5 = 0 | CDK6 = 0 | CDK7 = 0 | CDK9 = 0 | CHEK2 = 0 | CSF1R 0 | CSK 0 | CSNK1A1 = 0 | CSNK1D 0 | DDR1 = 0 | DYRK1B 0 | DYRK2 = 0

O=C(CNc1cccc(Cl)c1)NC1CCCN(c2ncnc3[nH]ccc23)C1 (stereo not given) (10 µM)
inactive: BRAF_V600E 0 | BTK 0 | CAMK2A 0 | CAMK2G 0 | CDK10 = 0 | CDK2 = 0 | CDK3 = 0 | CDK4 = 0 | CDK5 = 0 | CDK6 = 0 | CDK7 = 0 | CDK9 = 0 | CHEK2 = 0 | CSF1R 0 | CSK 0 | CSNK1A1 = 0 | CSNK1D 0 | DDR1 = 0 | DYRK1B 0 | DYRK2 = 0

Cc1cc(-c2ccnc(Nc3cnn(C)c3)n2)ccc1CNC(=O)N1CC(OC(C)C)C1 (10 µM)
inactive: BRAF_V600E 0 | BTK 0 | CAMK2A 0 | CAMK2G 0 | CDK10 = 0 | CDK2 = 0 | CDK3 = 0 | CDK4 = 0 | CDK5 = 0 | CDK6 = 0 | CDK7 = 0 | CDK9 = 0 | CHEK2 = 0 | CSF1R 0 | CSK 0 | CSNK1A1 = 0 | CSNK1D 0 | DDR1 = 0 | DYRK1B 0 | DYRK2 = 0

CNC(=O)c1ccccc1Oc1nc(Nc2cc(OC)c(OC)c(OC)c2)ncc1Br (2.5 µM)
inactive: BRAF_V600E 0 | BTK 0 | CAMK2A 0 | CAMK2G 0 | CDK10 = 0 | CDK2 = 0 | CDK3 = 0 | CDK4 = 0 | CDK5 = 0 | CDK6 = 0 | CDK7 = 0 | CDK9 = 0 | CHEK2 = 0 | CSF1R 0 | CSK 0 | CSNK1A1 = 0 | CSNK1D 0 | DDR1 = 0 | DYRK1B 0 | DYRK2 = 0

Cc1c(-c2ccc(C(N)=O)c3[nH]c4cc(C(C)(C)O)ccc4c23)cccc1-n1cnc2ccccc2c1=O (2.5 µM)
inactive: BRAF_V600E 0 | BTK 0 | CAMK2A 0 | CAMK2G 0 | CDK10 = 0 | CDK2 = 0 | CDK3 = 0 | CDK4 = 0 | CDK5 = 0 | CDK6 = 0 | CDK7 = 0 | CDK9 = 0 | CHEK2 = 0 | CSF1R 0 | CSK 0 | CSNK1A1 = 0 | CSNK1D 0 | DDR1 = 0 | DYRK1B 0 | DYRK2 = 0

Cc1ncc(NC(=O)NC2c3ccccc3-c3ccccc32)c(-c2ccccc2)n1 (10 µM)
inactive: BRAF_V600E 0 | BTK 0 | CAMK2A 0 | CAMK2G 0 | CDK10 = 0 | CDK2 = 0 | CDK3 = 0 | CDK4 = 0 | CDK5 = 0 | CDK6 = 0 | CDK7 = 0 | CDK9 = 0 | CHEK2 = 0 | CSF1R 0 | CSK 0 | CSNK1A1 = 0 | CSNK1D 0 | DDR1 = 0 | DYRK1B 0 | DYRK2 = 0

Entries listed so far that have fluorine, in the order listed:
CN1CCC(c2ccccc2CC(C)(C)Nc2nc(N3CCOCC3)nc(-n3c(C(F)F)nc4ccccc43)n2)CC1 [Zandelisib] (10 µM)
inactive: BRAF_V600E 0 | BTK 0 | CAMK2A 0 | CAMK2G 0 | CDK10 = 0 | CDK2 = 0 | CDK3 = 0 | CDK4 = 0 | CDK5 = 0 | CDK6 = 0 | CDK7 = 0 | CDK9 = 0 | CHEK2 = 0 | CSF1R 0 | CSK 0 | CSNK1A1 = 0 | CSNK1D 0 | DDR1 = 0 | DYRK1B 0 | DYRK2 = 0

Cc1nn(C)c2c1C(c1ccc(C(F)(F)F)cc1)C(C#N)=C(N)O2 (stereo not given) (10 µM)
inactive: BRAF_V600E 0 | BTK 0 | CAMK2A 0 | CAMK2G 0 | CDK10 = 0 | CDK2 = 0 | CDK3 = 0 | CDK4 = 0 | CDK5 = 0 | CDK6 = 0 | CDK7 = 0 | CDK9 = 0 | CHEK2 = 0 | CSF1R 0 | CSK 0 | CSNK1A1 = 0 | CSNK1D 0 | DDR1 = 0 | DYRK1B 0 | DYRK2 = 0

Later entries

C[C@@H]1CN(c2cc(-c3n[nH]c4ccc(OC5(C)CC5)cc34)ncn2)C[C@H](C)O1 (10 µM)
inactive: BRAF_V600E 0 | BTK 0 | CAMK2A 0 | CAMK2G 0 | CDK10 = 0 | CDK2 = 0 | CDK3 = 0 | CDK4 = 0 | CDK5 = 0 | CDK6 = 0 | CDK7 = 0 | CDK9 = 0 | CHEK2 = 0 | CSF1R 0 | CSK 0 | CSNK1A1 = 0 | CSNK1D 0 | DDR1 = 0 | DYRK1B 0 | DYRK2 = 0

O=c1cc(-c2cccc3c2Sc2ccccc2S3)oc(N2CCOCC2)c1 (10 µM)
inactive: BRAF_V600E 0 | BTK 0 | CAMK2A 0 | CAMK2G 0 | CDK10 = 0 | CDK2 = 0 | CDK3 = 0 | CDK4 = 0 | CDK5 = 0 | CDK6 = 0 | CDK7 = 0 | CDK9 = 0 | CHEK2 = 0 | CSF1R 0 | CSK 0 | CSNK1A1 = 0 | CSNK1D 0 | DDR1 = 0 | DYRK1B 0 | DYRK2 = 0

CNC(=O)c1cc2c(Oc3ccc(NC(=S)NC(=O)Cc4ccccc4)cc3F)ccnc2cc1OC [TAS-115 mesylate] (10 µM)
inactive: BRAF_V600E 0 | BTK 0 | CAMK2A 0 | CAMK2G 0 | CDK10 = 0 | CDK2 = 0 | CDK3 = 0 | CDK4 = 0 | CDK5 = 0 | CDK6 = 0 | CDK7 = 0 | CDK9 = 0 | CHEK2 = 0 | CSF1R 0 | CSK 0 | CSNK1A1 = 0 | CSNK1D 0 | DDR1 = 0 | DYRK1B 0 | DYRK2 = 0

COc1nn(C)cc1Nc1nccc(-c2c[nH]c3c(NC(=O)[C@@H](C)N4CCN(C)CC4)cccc23)n1 (10 µM)
inactive: BRAF_V600E 0 | BTK 0 | CAMK2A 0 | CAMK2G 0 | CDK10 = 0 | CDK2 = 0 | CDK3 = 0 | CDK4 = 0 | CDK5 = 0 | CDK6 = 0 | CDK7 = 0 | CDK9 = 0 | CHEK2 = 0 | CSF1R 0 | CSK 0 | CSNK1A1 = 0 | CSNK1D 0 | DDR1 = 0 | DYRK1B 0 | DYRK2 = 0

Cn1cc(C2=C(c3cccc(N)c3)C(=O)NC2=O)c2ccccc21 (10 µM)
inactive: BRAF_V600E 0 | BTK 0 | CAMK2A 0 | CAMK2G 0 | CDK10 = 0 | CDK2 = 0 | CDK3 = 0 | CDK4 = 0 | CDK5 = 0 | CDK6 = 0 | CDK7 = 0 | CDK9 = 0 | CHEK2 = 0 | CSF1R 0 | CSK 0 | CSNK1A1 = 0 | CSNK1D 0 | DDR1 = 0 | DYRK1B 0 | DYRK2 = 0

CCc1ccc(OCC(=O)Nc2ccc(F)c([N+](=O)[O-])c2)cc1 (10 µM)
inactive: BRAF_V600E 0 | BTK 0 | CAMK2A 0 | CAMK2G 0 | CDK10 = 0 | CDK2 = 0 | CDK3 = 0 | CDK4 = 0 | CDK5 = 0 | CDK6 = 0 | CDK7 = 0 | CDK9 = 0 | CHEK2 = 0 | CSF1R 0 | CSK 0 | CSNK1A1 = 0 | CSNK1D 0 | DDR1 = 0 | DYRK1B 0 | DYRK2 = 0

C=CC(=O)N1C(=O)CC(c2ccc(F)cc2)Sc2ccccc21 (stereo not drawn) [GSK-3β inhibitor 3] (10 µM)
inactive: BRAF_V600E 0 | BTK 0 | CAMK2A 0 | CAMK2G 0 | CDK10 = 0 | CDK2 = 0 | CDK3 = 0 | CDK4 = 0 | CDK5 = 0 | CDK6 = 0 | CDK7 = 0 | CDK9 = 0 | CHEK2 = 0 | CSF1R 0 | CSK 0 | CSNK1A1 = 0 | CSNK1D 0 | DDR1 = 0 | DYRK1B 0 | DYRK2 = 0
